Test results: patent US8815799B2, “Inhibiting striated muscle activator of RHO (stars) to improve glycemic control” (Joslin Diabetes Center, Inc., priority 2010, dated 2014)
Entries after “also recorded” stand apart in the source; their conditions may differ. For at least one compound, name, drawing or mass did not settle the structure.

Assays:
[1] = test system: SRF transcriptional activity; assay: SRF transcriptional activity, 4x CArG (SRE) promoter luciferase reporter in C2C12 cells; type: cell-based; settings: C2C12 myotubes, basal level; agent as inducer of insulin resistance (FIG. 4)
Method: FIG. 11B is a bar graph showing the effect of CCG on SRF transcriptional activity. 4× CArG promoter is activated in response to serum stimulation (FBS 2 hours, control) and following overnight treatment with 100 μM dexamethasone (DEX) in C2C12 myoblasts. This SRF-mediated transcriptional activity was blocked by pre-treatment with CCG-1423 (1 μM, 16 hours).
To determine whether SRF transcriptional activity is also changed in insulin resistance, 4× tandem repeat of SRF binding element (SRE) CArG boxes (Kuwahara et al., Mol. Cell Biol. 25:3173-3181 (2005)) promoters linked to a luciferase gene were used as a reporter. […] These increases in SRF transcriptional activity in insulin resistant states could cause up-regulation of SRF target gene expression.

[2] = test system: G actin; assay: DNase I stainable G actin in C2C12 myotubes; type: cell-based; settings: rosiglitazone on dexamethasone or LY treated cells
[3] = test system: MKL1; assay: MKL1 cellular localization in C2C12 myoblasts; type: cell-based
Method: Since MKL1 is known to shuttle between the cytosol and nucleus to modulate target gene expression (Vartiainen et al., Science. 316:1749-1752 (2007)), the possibility arises that MKL1 localization may differ in insulin resistant state as compared to the normal state. […] In the basal state, MKL1 predominantly localized to cytosol and partially in nucleus. After 30 minutes of serum stimulation, MKL1 translocated to the […]. […] To determine whether MKL1 and G actin complex formation is changed in insulin resistance, the nuclear and cytosolic fractions from C2C12 myotubes were co-immunoprecipitated with MKL1 and blotted with beta actin.
To determine if the effects of CCG-1423 on SRF activity were mediated via MKL1 localization, MKL1 localization was assessed in C2C12 myoblasts treated with CCG-1423.

[4] = test system: SRF target genes (ZYX, VCL, PDLIM7); assay: SRF target gene expression in muscle of insulin resistant mice (DIO/HFD, Ob/Ob); type: in vivo; settings: muscle of DIO/HFD and Ob/Ob mice; rosiglitazone 3 mg/kg/day (FIG. 15C)
[5] = test system: STARS; assay: STARS expression in C57BL/6J mice fed HFD; type: in vivo
[6] = test system: G actin; assay: G actin staining (DNase I) in muscle of diet induced obesity mice; type: in vivo; settings: diet induced obesity (DIO) mice

| SMILES | SRF transcriptional activity in experimentally induced insulin resistance [1] | amount of DNase I stainable G actin [2] | MKL1 cytosol/nuclear localization [3] | increased SRF target gene expression in insulin resistant mice [4] | increased STARS expression in HFD-fed mice [5] | decrease in G actin staining [6] |
| --- | --- | --- | --- | --- | --- | --- |
| O=c1cc(N2CCOCC2)oc2c(-c3ccccc3)cccc12 [LY294002] | dramatically increased | decreased | retained in the nucleus |  |  |  |
| C[C@@H]1C[C@H]2[C@@H]3CCC4=CC(=O)C=C[C@]4(C)[C@@]3(F)[C@@H](O)C[C@]2(C)[C@@]1(O)C(=O)CO [dexamethasone] | dramatically increased | decreased | retained in the nucleus; also recorded: predominantly nuclear |  |  |  |
| CN(CCOc1ccc(CC2SC(=O)NC2=O)cc1)c1ccccn1 (stereo not shown) [rosiglitazone] |  | partially recovered |  | normalized | normalized | partially normalized |
